# Some results were stated once for a whole list of compounds, not compound by compound.
# By UniProt entry, the sequences of proteins in these tests, tags left out. Where a name states a change or a piece, a line headed by the entry shows the natural chain unless it says otherwise.
# UniProt P35408: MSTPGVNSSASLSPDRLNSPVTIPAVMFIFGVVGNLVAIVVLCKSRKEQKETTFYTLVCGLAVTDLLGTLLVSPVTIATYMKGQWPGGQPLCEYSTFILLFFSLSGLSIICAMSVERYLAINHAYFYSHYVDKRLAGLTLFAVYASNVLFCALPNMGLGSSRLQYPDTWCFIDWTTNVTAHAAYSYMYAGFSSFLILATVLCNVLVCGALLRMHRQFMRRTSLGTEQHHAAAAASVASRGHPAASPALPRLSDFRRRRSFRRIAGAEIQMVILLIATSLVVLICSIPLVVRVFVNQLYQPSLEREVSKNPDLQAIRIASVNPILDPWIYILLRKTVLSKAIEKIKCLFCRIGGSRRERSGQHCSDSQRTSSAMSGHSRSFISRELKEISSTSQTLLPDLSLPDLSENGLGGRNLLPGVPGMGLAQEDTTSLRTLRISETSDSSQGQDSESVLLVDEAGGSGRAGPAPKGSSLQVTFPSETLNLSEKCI
# Assays:
# [1] = molecular target: T1, recombinant human EP4 receptor membrane protein (Homo sapiens, UniProt P35408); test: Radioligand binding assay for EP4 receptor ([3H]-PGE2)
# T1 construct: expressed in transfected cells; host or cells: membranes of 293 cells overexpressing human EP4 receptor
# Method: The compounds to be tested and PGE2 were formulated as 10 mM stocks in a DMSO solvent, and then 8 concentration points of 4× working solution were serially diluted using a buffer (50 mM HBSS, 0.1% BSA, 500 mM NaCl). […] Unifilter-96 GF/C filter plate (Perkin Elmer) was soaked with 0.5% BSA, 50 μL per well, for at least 30 min at room temperature. After binding was complete, the reaction mixture was harvested through a GF/C plate using a Perkin Elmer Filtermate Harvester, followed by washing the filter plate and drying the filter plate for 1 hour at 50° C. After drying, the bottom of the filter plate wells was sealed using a Perkin Elmer Unifilter-96 sealing tape, and 50 μL of MicroScint™-20 cocktail (Perkin Elmer) was added to seal the top of the filter plate. The ^3H counts captured on the filter were read using a Perkin Elmer MicroBeta2 Reader.
# The IC50 and Ki values of the compounds determined by the radioligand binding assay for EP4 receptor were calculated based on the inhibition rate of the different concentrations of the compounds.
# [2] = tested on: CT-26 murine colon cancer tumor model; test: Anti-tumor effect in CT-26 murine colon cancer tumor model in combination with radiation therapy; type: in vivo, mouse; conditions: 150 mg/kg in combination with radiotherapy; day 23
# Method: In this assay, the anti-tumor effects of the control compound and the compounds prepared in Examples 1 to 43, in combination with radiation therapy, were tested in a CT-26 murine colon cancer tumor model.
# After one week of adaptive feeding of mice, CT-26 cells in a log phase were resuspended in PBS, 5×10^5 CT-26 cells were inoculated subcutaneously at the right flank at 100 μL per mouse, and tumor growth was observed regularly. When the tumor grew to an average volume of 60 to 80 mm^3, the mice carrying the tumor were randomly divided into 5 groups based on the tumor volume size, each group containing 10 mice of 10. These group were a group of Control compound (150 mg/kg) in combination with radiotherapy (3Gry), a group of Compound I-2 (150 mg/kg) in combination with radiotherapy, a group of Compound I-5 (150 mg/kg) in combination with radiotherapy, a group of radiotherapy (3Gry) alone, and a group of vehicle control. The mice were intragastrically administered with the corresponding compound once daily, for 23 days in total; radiation therapy was performed for one-time on the first day of the administration. Tumor volumes and mouse body weights were measured twice a week, and tumor weights were weighed at the end of the experiment. Efficacy evaluations were performed based on relative tumor inhibition (TGI), safety evaluations were performed based on changes in animal body weight and death. Tumor volume and relative tumor inhibition were calculated as follows:
# Tumor volume (TV)=½×a×b^2, where a and b are the length and width of the tumor measurement, respectively.
# Relative tumor inhibition rate TGI (%)=(TWc−TWt/TWc)×100%, where TWc is the mean tumor weight of the vehicle control group and TW is the mean tumor weight of the treatment group.
SMILES,increase of affinity with the EP4 receptor compared with the control compound [1],p versus vehicle control group [2],p versus group of radiotherapy alone [2]
"CCc1cc(Oc2c(C(=O)N[C@@H](C)c3ccc(C(=O)O)cc3)c(C(F)F)nn2C)ccc1F [Compound I-2, (S)-4-(1-(3-(difluoromethyl)-5-(3-ethyl-4-fluorophenoxy)-1-methyl-1H-pyrazole-4-carboxamido)ethyl)benzoic Acid]",more than 5 times,smaller than 0.05,–
"C[C@H](NC(=O)c1c(C(F)F)nn(C)c1Oc1cccc(C(C)(F)F)c1)c1ccc(C(=O)O)cc1 [Compound I-5, (S)-4-(1-(5-(3-(1,1-difluoroethyl)phenoxy)-3-(difluoromethyl)-1-methyl-1H-pyrazole-4-carboxamido)ethyl)benzoic Acid]",more than 5 times,smaller than 0.05,smaller than 0.05
